Results from the supplement of paper PMC12024529.
Structures can show the parent of a compound that is named as a salt. Some of the results follow. Part of the spread comes from offsets between plates or batches.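 The cells are HEK293 lines stably expressing B-domain-deleted factor VIII fused to Gaussia luciferase, either wild type or a misfolding-prone missense mutant. Each score is mean luminescence from triplicate wells minus the DMSO mean, divided by the DMSO standard deviation; a score of 2 or more counts as a hit, and low scores may reflect lower secretion or poorer cell viability.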

How the values were obtained:
HEK293 WT BDD-FVIII-Gluc = assay: secreted FVIII-Gluc luciferase Z-score vs DMSO control; higher = more FVIII-Gluc secretion; settings: 5 µM; 24 h
[1] = system: HEK293 p.N1941S BDD-FVIII-Gluc; assay: as above; settings: 5 µM; 24 h

Structure (SMILES) | secreted FVIII-Gluc luciferase Z-score (HEK293 WT BDD-FVIII-Gluc) | secreted FVIII-Gluc luciferase Z-score [1]
Cn1nnc2c(C(N)=O)ncn2c1=O [Methazolastone] | inactive: -1.81 | inactive: -5.44
OC1(c2ccc(Cl)c(C(F)(F)F)c2)CCN(CCCC(c2ccc(F)cc2)c2ccc(F)cc2)CC1 [Penfluridol] | inactive: -0.0748 | inactive: -1.71
Clc1ccc(C(Cn2ccnc2)OCc2ccsc2Cl)c(Cl)c1 (stereo not given) [Tioconazole] | inactive: -3.03 | inactive: -3.53
Cn1c(=O)c2c(ncn2CC2OCCO2)n(C)c1=O [Doxofylline] | inactive: 1.45 | inactive: -1.09
COc1ccc(CNc2nc(N3CCC[C@H]3CO)ncc2C(=O)NCc2ncccn2)cc1Cl [Avanafil] | inactive: -0.814 | inactive: -0.188
CCCc1cc(=O)[nH]c(=S)[nH]1 [Propylthiouracil] | inactive: -1.04 | inactive: -3.26
Cc1ccc(-c2cc(C(F)(F)F)nn2-c2ccc(S(N)(=O)=O)cc2)cc1 [Celecoxib] | inactive: -0.97 | inactive: -1.96
CN1CCC[C@@H]1CCO[C@](C)(c1ccccc1)c1ccc(Cl)cc1 [Clemastine Fumarate] | inactive: -2.76 | inactive: -3.21
C[C@H]1COc2c(N3CCN(C)CC3)c(F)cc3c(=O)c(C(=O)O)cn1c23 [Levofloxacin (Levaquin)] | inactive: -1.31 | inactive: 1.38
CN1CCN2c3ccccc3Cc3ccccc3C2C1 (stereo not given) [Mianserin hydrochloride] | inactive: -5.58 | inactive: -0.256
CCN(CC)C(=O)/C(C#N)=C/c1cc(O)c(O)c([N+](=O)[O-])c1 [Entacapone] | inactive: -1.02 | inactive: -0.43
CCOC(=O)[C@H](CCc1ccccc1)N[C@@H](C)C(=O)N1[C@H](C(=O)O)C[C@@H]2CCC[C@@H]21 [Ramipril (Altace)] | inactive: -0.0531 | inactive: 1.52
O=c1[nH]cc(F)c(=O)[nH]1 [Adrucil (Fluorouracil)] | inactive: -0.917 | inactive: -1.96
CC#C[C@]1(O)CC[C@H]2[C@@H]3CCC4=CC(=O)CCC4=C3[C@@H](c3ccc(N(C)C)cc3)C[C@@]21C [Mifepristone (Mifeprex)] | inactive: -6.26 | inactive: -0.884
C#C[C@]1(O)CC[C@H]2[C@@H]3CCc4cc(OC)ccc4[C@H]3CC[C@@]21C [Mestranol] | inactive: 0.928 | inactive: -0.0232
CC(=O)OCC(=O)[C@@]12N=C(C)O[C@@H]1C[C@H]1[C@@H]3CCC4=CC(=O)C=C[C@]4(C)[C@H]3[C@@H](O)C[C@@]12C [Deflazacort (Calcort)] | active: 2.41 | active: 5.85
CCCc1nc(C)c2c(=O)nc(-c3cc(S(=O)(=O)N4CCN(CC)CC4)ccc3OCC)[nH]n12 [Vardenafil (Vivanza)] | inactive: 0.885 | inactive: -6.49
CN1CCN(CCCN2c3ccccc3Sc3ccc(C(F)(F)F)cc32)CC1 [Trifluoperazine 2HCl] | inactive: -1.1 | inactive: -3.63
O=c1[nH]c(=O)n([C@H]2C[C@H](O)[C@@H](CO)O2)cc1F [Floxuridine] | inactive: -11 | inactive: -3.43
CCCCc1oc2ccc(NS(C)(=O)=O)cc2c1C(=O)c1ccc(OCCCN(CCCC)CCCC)cc1 [Dronedarone HCl (Multaq)] | inactive: -0.0311 | inactive: -1.17
CC(C)(OCc1nn(Cc2ccccc2)c2ccccc12)C(=O)O [Bindarit] | inactive: 1.08 | inactive: 0.26
COc1ccccc1N1CCN(CC(O)COc2cccc3ccccc23)CC1 (stereo not given) [Naftopidil (Flivas)] | inactive: -0.898 | inactive: 1.01
CC[C@H]1OC(=O)C[C@@H](O)[C@H](C)[C@@H](O[C@@H]2O[C@H](C)[C@@H](O)[C@H](N(C)C)[C@H]2O)[C@@H](CCN2C[C@H](C)C[C@H](C)C2)C[C@@H](C)C(=O)/C=C/C(C)=C/[C@@H]1CO[C@@H]1O[C@H](C)[C@@H](O)[C@@H](OC)[C@H]1OC [Tilmicosin] | inactive: -0.233 | inactive: 0.293
COCCCOc1cc(C[C@@H](C[C@H](N)[C@@H](O)C[C@H](C(=O)NCC(C)(C)C(N)=O)C(C)C)C(C)C)ccc1OC [Aliskiren hemifumarate] | inactive: -0.699 | inactive: 0.456
C[C@]12C=CC(=O)C=C1CC[C@H]1[C@@H]3C[C@@H](O)[C@](O)(C(=O)CO)[C@@]3(C)C[C@H](O)[C@@]12F [Triamcinolone (Aristocort)] | inactive: 1.76 | active: 4.32

Structure (SMILES) | secreted FVIII-Gluc luciferase Z-score (HEK293 WT BDD-FVIII-Gluc) | secreted FVIII-Gluc luciferase Z-score [1]
O=C([O-])c1ccccc1O.[Na+] [Sodium salicylate] | inactive: 1.58 | inactive: 0.471
CC(C)C(=O)Nc1ccc([N+](=O)[O-])c(C(F)(F)F)c1 [Flutamide (Eulexin)] | inactive: -1.23 | inactive: -0.0341
COc1ccc(-n2nc(C(N)=O)c3c2C(=O)N(c2ccc(N4CCCCC4=O)cc2)CC3)cc1 [Apixaban] | inactive: -0.447 | inactive: -0.00848
CCOc1nc2cccc(C(=O)O)c2n1Cc1ccc(-c2ccccc2-c2nnn[nH]2)cc1 [Candesartan (Atacand)] | inactive: -2.28 | inactive: -0.519
CC(C)CN(C[C@@H](O)[C@H](Cc1ccccc1)NC(=O)O[C@H]1CO[C@H]2OCC[C@H]21)S(=O)(=O)c1ccc(N)cc1 [Darunavir Ethanolate (Prezista)] | inactive: -2.35 | inactive: 0.0529
O=C(O)c1cc(=O)c2ccccc2o1 [Chromocarb] | inactive: 0.388 | inactive: 0.0209
CCCc1cc(C(N)=S)ccn1 [Protionamide (Prothionamide)] | inactive: -1.66 | inactive: 0.0069
CC(=O)O[C@@]12CO[C@@H]1C[C@H](O)[C@@]1(C)C(=O)[C@H](O)C3=C(C)[C@@H](OC(=O)[C@H](O)[C@@H](NC(=O)OC(C)(C)C)c4ccccc4)C[C@@](O)([C@@H](OC(=O)c4ccccc4)[C@H]21)C3(C)C [Docetaxel (Taxotere)] | inactive: -3.68 | inactive: -10.8
COc1ccccc1Oc1c(NS(=O)(=O)c2ccc(C(C)(C)C)cc2)nc(-c2ncccn2)nc1OCCO [Bosentan] | inactive: -2.93 | inactive: -0.331
CN(C)CCCN1c2ccccc2CCc2ccc(Cl)cc21 [Clomipramine HCl] | inactive: -0.569 | inactive: -3.24
CO[C@@H]1[C@@H](OC(N)=O)[C@@H](O)[C@H](Oc2ccc3c(O)c(NC(=O)c4ccc(O)c(CC=C(C)C)c4)c(=O)oc3c2C)OC1(C)C [Novobiocin sodium (Albamycin)] | inactive: -0.464 | inactive: 0.0516
CO[C@@]1(NC(=O)C(C(=O)O)c2ccc(O)cc2)C(=O)N2C(C(=O)O)=C(CSc3nnnn3C)CO[C@@H]21 (stereo not given in full) [Moxalactam Disodium] | inactive: 0.736 | inactive: 1.75
Nc1ccc(O)c(C(=O)O)c1 [Mesalamine (Lialda)] | inactive: -1.97 | inactive: 0.312
CC(=O)[C@H]1CC[C@H]2[C@@H]3C=CC4=CC(=O)CC[C@@]4(C)[C@@H]3CC[C@]12C [Dydrogesterone] | inactive: 1.33 | inactive: 0.529
Oc1ccc(OCc2ccccc2)cc1 [Monobenzone (Benoquin)] | inactive: -3.2 | inactive: -2.07
CN1C2CCC1CC(OC(=O)C(O)c1ccccc1)C2 (stereo not given) [Homatropine Bromide] | inactive: -0.639 | inactive: -0.308
CC(=O)OCC(=O)[C@@]1(O)CC[C@H]2[C@@H]3CCC4=CC(=O)CC[C@]4(C)[C@H]3C(=O)C[C@@]21C [Cortisone acetate (Cortone)] | inactive: 0.143 | inactive: -1.07
CCCCCOC(=O)Nc1nc(=O)n([C@@H]2O[C@H](C)[C@@H](O)[C@H]2O)cc1F [Capecitabine (Xeloda)] | inactive: 0.488 | active: 3.81
CCOCC(O)COc1ccc(NC(=O)CC[S+](C)C)cc1 (stereo not given) [Suplatast tosylate] | inactive: 1.57 | inactive: 1.69
C[C@H](CS)C(=O)N1CCC[C@H]1C(=O)O [Captopril (Capoten)] | inactive: 0.311 | inactive: -0.217
COc1cc(C)c(/C=C/C(C)=C/C=C/C(C)=C/C(=O)O)c(C)c1C [Acitretin] | inactive: -11.1 | inactive: 0.156
CCn1cc(C(=O)O)c(=O)c2cnc(N3CCCC3)nc21 [Piromidic Acid] | inactive: -0.866 | inactive: 1.49
Cc1ncc([N+](=O)[O-])n1CC(O)CCl (stereo not given) [Ornidazole] | inactive: -1.11 | inactive: 0.315
N#C[C@@H]1CCCN1C(=O)CNC12CC3CC(CC(O)(C3)C1)C2 [Vildagliptin (LAF-237)] | inactive: -0.608 | inactive: 0.215
CCc1c(Cl)c(O)c(Cl)c(O)c1C(=O)O[C@H]1[C@H](O)[C@H](OC)[C@H](OC/C2=C\C=C\C[C@H](O)/C(C)=C/[C@H](CC)[C@@H](O[C@@H]3OC(C)(C)[C@@H](OC(=O)C(C)C)[C@H](O)[C@@H]3O)/C(C)=C/C(C)=C/C[C@@H]([C@@H](C)O)OC2=O)O[C@@H]1C [Fidaxomicin] | inactive: -1.44 | inactive: -0.55

Gathered by group, the compounds so far with a tert-butyl group.
Structure (SMILES) | secreted FVIII-Gluc luciferase Z-score (HEK293 WT BDD-FVIII-Gluc) | secreted FVIII-Gluc luciferase Z-score [1]
CC(=O)O[C@@]12CO[C@@H]1C[C@H](O)[C@@]1(C)C(=O)[C@H](O)C3=C(C)[C@@H](OC(=O)[C@H](O)[C@@H](NC(=O)OC(C)(C)C)c4ccccc4)C[C@@](O)([C@@H](OC(=O)c4ccccc4)[C@H]21)C3(C)C [Docetaxel (Taxotere)] | inactive: -3.68 | inactive: -10.8
COc1ccccc1Oc1c(NS(=O)(=O)c2ccc(C(C)(C)C)cc2)nc(-c2ncccn2)nc1OCCO [Bosentan] | inactive: -2.93 | inactive: -0.331
